PubChem BioAssay AID602196 – INSERM | 2012
The whole screen tested about 23,000 reagents; below is a part drawn at random. 455 of them (2%) were called active. 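Active includes both protection and sensitisation; some change values fall well beyond the stated -50 to +50 range.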 A number with no mark means an inactive call. Not stated in the record: the amount of reagent.

Purpose: 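Knock-downs that protect lung cancer cells from cisplatin or sensitise them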
System: human A549 lung cancer cells
Reagent: siRNA pair against human genes
Duration: 48 h transfection before cisplatin; time from cisplatin to read-out not stated
Treatment: cisplatin at a dose killing half of control-siRNA cells; exact dose and duration not given
Detection: 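Shift in cisplatin death relative to control siRNA, from -50 (all cells die) to +50 (no cells die); siRNAs harmful on their own scored 0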
Scale: two-siRNA summed score (-2 to +2): higher = both siRNAs protect from cisplatin killing; -2 means both sensitise; mean protection from cisplatin (shift in death) and protection from cisplatin (shift in death), siRNA C and protection from cisplatin (shift in death), siRNA D: higher = protection from cisplatin killing
Active means: 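siRNAs harmful alone (LDH or WST-1) get 0; others get +1 for less and -1 for more cisplatin killing; genes are active when the two siRNAs give the same sign, summing to ±2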
Calls: active = both siRNAs shift cisplatin killing the same way; inactive = no consistent shift, or siRNA harmful alone

Gene,two-siRNA summed score (-2 to +2),mean protection from cisplatin (shift in death) (%),"protection from cisplatin (shift in death), siRNA C (%)","protection from cisplatin (shift in death), siRNA D (%)"
NDUFA1,0,-9.7,-5.3,-14.2
NCR1,0,-2.4,0.4,-5.1
ZNF788P,0,9.3,7.4,11.2
COG8,0,-3.5,-8,1
WNT16,0,-0.7,4.5,-5.9
PEX39,1,42.8,27.7,57.9
FKBP4,0,27.4,37.5,17.2
CH25H,0,-1,4.7,-6.6
LOC340477,0,3.9,9.3,-1.6
LOC390531,0,11.4,9.5,13.2
TAF3,0,8.3,22.8,-6.1
LOC284912,1,14.9,10.9,18.9
FGB,0,2.8,0.9,4.6
NR4A2,0,-10.3,-42.6,22
CLEC4G,1,0.9,17.7,-15.8
SLAIN1,0,17.8,22.9,12.7
CCZ1,0,15.1,17.2,13
ELF4,0,1.9,8.2,-4.4
SUSD2,-1,-9.5,-19.3,0.3
LOC164045,-1,-10.6,2.8,-24
LOC440148,1,15.3,4.3,26.3
RBP7,0,-2.6,-4.4,-0.9
POGK,0,7.1,19.2,-5
TMEM156,0,1.6,-3.2,6.3
LOC197350,0,-2.7,-1.5,-3.9
DSCC1,0,0.9,3.9,-2
IMP3,0,3.9,3.1,4.6
LOC387927,0,16.9,-9.8,43.7
CST8,0,8.8,13.3,4.2
ZNF674-AS1,0,11.4,15.2,7.6
LOC149709,1,9.8,23.3,-3.6
SLC25A38P1,2 (active),14.5,13.9,15
LOC400547,0,6.4,8.4,4.5
LOC390604,0,7.8,9.4,6.2
LOC402695,0,3,-0.2,6.1
LRRC23,0,3.5,6.2,0.8
ATP5MC3,0,16.5,36.4,-3.4
UGT2B15,-1,-3.3,-21.3,14.8
DAZ2,0,4.9,-2.6,12.5
CASP10,0,2.2,-0.7,5.1
TBC1D25,0,11.3,14.6,7.9
ENPP2,1,20.9,24.5,17.2
KLK12,0,-3.1,4,-10.2
TMEM74,0,-1.9,-6.1,2.4
ZNF45,1,4.1,-2.1,10.3
LOC441437,0,-4,1.3,-9.4
COPZ1,0,3.7,-1.1,8.6
EIF3B,0,16.4,34,-1.2
TCFL5,-1,-32.1,-41.1,-23.1
ANGPT2,0,-5.9,-7.2,-4.5
HOXA1,-1,-17.1,-13,-21.2
IL26,0,-3.4,-21.6,14.9
DHRS2,0,-4.1,3.8,-12
EP400,0,9.4,8.1,10.6
FSTL4,-1,-5.5,6.3,-17.2
LOC387910,0,0.6,-2.6,3.8
DMKN,0,1.1,5.8,-3.5
